± gives the standard deviation of the averaged measurements. This is a selection; strong and weak results do not stand in their true shares.
Compound: Nc1ncnc2c1ncn2[C@@H]1O[C@H](COP(=O)(O)OP(=O)(O)OP(=O)(O)O)[C@@H](O)[C@H]1O [adenosine triphosphate]
Assay: NP40-soluble protein abundance relative to vehicle (solubility fold change) (ratio); higher = more soluble protein in presence of ATP
Procedure, shortened: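 In three independent experiments, Jurkat crude lysate made by Dounce homogenisation was treated for 10 min at room temperature and then 3 min at 37 °C with eight concentrations ranging from 0.1 to 10 mM. It was then solubilised with 0.8% NP40 plus benzonase for 60 min at 4 °C and ultracentrifuged. The supernatant was TMT-labelled for LC-MS/MS, and each value is the fold change against the detergent-processed vehicle for the same replicate, using vsn-normalised intensities.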

Protein sequences, listed by entry. Tags and fused reporters are not part of them. Lines headed by an entry give the natural chain unless they say otherwise; changes in a name come on top.
UniProt Q6NUM9: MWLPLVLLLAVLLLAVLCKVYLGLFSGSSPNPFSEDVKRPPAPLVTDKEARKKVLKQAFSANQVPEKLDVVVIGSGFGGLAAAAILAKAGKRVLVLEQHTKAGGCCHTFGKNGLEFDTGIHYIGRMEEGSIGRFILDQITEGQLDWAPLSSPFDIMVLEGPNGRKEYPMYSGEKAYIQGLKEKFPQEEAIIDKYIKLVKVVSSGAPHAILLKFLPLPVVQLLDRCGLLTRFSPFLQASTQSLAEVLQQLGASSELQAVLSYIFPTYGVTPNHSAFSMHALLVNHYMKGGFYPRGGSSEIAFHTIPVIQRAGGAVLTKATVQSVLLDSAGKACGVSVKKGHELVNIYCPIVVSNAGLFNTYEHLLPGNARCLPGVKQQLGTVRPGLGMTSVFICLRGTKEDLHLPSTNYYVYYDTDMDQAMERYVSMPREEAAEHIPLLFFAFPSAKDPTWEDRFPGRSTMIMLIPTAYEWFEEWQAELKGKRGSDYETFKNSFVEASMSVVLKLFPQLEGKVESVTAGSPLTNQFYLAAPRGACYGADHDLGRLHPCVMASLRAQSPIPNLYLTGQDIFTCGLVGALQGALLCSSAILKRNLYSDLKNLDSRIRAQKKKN
UniProt Q5GLZ8: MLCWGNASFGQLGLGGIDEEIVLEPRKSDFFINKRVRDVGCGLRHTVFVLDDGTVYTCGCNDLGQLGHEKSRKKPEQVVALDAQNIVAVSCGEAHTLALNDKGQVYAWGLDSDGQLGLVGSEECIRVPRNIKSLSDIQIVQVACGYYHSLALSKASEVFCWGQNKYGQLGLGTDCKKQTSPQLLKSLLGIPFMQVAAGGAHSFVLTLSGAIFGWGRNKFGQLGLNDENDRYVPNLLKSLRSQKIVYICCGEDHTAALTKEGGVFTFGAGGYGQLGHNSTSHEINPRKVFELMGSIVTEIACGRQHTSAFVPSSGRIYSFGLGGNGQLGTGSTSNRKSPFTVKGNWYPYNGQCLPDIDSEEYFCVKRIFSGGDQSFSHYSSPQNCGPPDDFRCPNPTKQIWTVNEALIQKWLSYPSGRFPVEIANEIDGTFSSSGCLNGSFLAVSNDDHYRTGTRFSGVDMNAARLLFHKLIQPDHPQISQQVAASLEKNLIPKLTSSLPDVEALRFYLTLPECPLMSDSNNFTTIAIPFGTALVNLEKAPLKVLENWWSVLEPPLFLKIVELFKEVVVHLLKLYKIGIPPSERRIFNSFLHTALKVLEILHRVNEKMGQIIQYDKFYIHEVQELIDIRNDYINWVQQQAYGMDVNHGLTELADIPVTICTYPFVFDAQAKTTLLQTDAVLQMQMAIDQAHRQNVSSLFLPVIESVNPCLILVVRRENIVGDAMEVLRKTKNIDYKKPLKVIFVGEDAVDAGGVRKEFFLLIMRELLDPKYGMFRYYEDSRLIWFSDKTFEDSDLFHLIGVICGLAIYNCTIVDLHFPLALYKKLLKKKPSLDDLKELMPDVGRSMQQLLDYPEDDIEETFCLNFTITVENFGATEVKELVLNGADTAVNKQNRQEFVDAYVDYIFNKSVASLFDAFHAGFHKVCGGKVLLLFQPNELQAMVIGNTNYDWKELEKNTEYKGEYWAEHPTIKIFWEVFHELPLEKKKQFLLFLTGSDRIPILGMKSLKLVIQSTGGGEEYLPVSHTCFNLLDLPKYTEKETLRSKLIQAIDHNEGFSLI
UniProt Q5T6V5: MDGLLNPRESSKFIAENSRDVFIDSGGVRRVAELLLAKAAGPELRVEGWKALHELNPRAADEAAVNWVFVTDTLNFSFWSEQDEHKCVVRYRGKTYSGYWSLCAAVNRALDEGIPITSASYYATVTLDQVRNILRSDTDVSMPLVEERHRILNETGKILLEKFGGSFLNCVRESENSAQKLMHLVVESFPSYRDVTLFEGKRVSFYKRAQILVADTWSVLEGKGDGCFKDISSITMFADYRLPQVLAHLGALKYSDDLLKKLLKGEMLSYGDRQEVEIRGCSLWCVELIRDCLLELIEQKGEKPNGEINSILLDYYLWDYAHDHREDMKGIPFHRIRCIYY
UniProt Q5XUX1: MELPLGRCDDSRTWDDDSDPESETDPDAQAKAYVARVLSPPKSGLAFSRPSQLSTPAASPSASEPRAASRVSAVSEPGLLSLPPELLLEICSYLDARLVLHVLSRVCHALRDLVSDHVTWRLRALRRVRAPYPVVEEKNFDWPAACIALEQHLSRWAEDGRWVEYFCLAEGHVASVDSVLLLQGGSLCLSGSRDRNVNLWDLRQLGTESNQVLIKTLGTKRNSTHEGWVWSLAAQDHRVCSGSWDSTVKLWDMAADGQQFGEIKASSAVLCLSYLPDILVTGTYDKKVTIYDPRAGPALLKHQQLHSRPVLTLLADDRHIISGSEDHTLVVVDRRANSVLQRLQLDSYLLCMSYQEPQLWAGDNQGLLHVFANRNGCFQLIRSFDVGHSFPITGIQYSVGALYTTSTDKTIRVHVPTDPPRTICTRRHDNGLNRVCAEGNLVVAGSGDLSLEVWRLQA
UniProt Q6PCB8: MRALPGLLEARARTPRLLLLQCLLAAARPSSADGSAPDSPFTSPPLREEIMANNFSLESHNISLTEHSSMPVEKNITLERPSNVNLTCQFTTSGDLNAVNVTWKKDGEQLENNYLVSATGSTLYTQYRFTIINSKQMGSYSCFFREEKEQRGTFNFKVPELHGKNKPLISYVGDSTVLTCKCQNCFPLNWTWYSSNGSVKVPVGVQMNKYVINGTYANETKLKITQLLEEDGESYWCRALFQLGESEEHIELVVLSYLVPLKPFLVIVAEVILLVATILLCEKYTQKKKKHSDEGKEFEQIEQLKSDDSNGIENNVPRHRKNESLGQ
UniProt Q5JSZ5: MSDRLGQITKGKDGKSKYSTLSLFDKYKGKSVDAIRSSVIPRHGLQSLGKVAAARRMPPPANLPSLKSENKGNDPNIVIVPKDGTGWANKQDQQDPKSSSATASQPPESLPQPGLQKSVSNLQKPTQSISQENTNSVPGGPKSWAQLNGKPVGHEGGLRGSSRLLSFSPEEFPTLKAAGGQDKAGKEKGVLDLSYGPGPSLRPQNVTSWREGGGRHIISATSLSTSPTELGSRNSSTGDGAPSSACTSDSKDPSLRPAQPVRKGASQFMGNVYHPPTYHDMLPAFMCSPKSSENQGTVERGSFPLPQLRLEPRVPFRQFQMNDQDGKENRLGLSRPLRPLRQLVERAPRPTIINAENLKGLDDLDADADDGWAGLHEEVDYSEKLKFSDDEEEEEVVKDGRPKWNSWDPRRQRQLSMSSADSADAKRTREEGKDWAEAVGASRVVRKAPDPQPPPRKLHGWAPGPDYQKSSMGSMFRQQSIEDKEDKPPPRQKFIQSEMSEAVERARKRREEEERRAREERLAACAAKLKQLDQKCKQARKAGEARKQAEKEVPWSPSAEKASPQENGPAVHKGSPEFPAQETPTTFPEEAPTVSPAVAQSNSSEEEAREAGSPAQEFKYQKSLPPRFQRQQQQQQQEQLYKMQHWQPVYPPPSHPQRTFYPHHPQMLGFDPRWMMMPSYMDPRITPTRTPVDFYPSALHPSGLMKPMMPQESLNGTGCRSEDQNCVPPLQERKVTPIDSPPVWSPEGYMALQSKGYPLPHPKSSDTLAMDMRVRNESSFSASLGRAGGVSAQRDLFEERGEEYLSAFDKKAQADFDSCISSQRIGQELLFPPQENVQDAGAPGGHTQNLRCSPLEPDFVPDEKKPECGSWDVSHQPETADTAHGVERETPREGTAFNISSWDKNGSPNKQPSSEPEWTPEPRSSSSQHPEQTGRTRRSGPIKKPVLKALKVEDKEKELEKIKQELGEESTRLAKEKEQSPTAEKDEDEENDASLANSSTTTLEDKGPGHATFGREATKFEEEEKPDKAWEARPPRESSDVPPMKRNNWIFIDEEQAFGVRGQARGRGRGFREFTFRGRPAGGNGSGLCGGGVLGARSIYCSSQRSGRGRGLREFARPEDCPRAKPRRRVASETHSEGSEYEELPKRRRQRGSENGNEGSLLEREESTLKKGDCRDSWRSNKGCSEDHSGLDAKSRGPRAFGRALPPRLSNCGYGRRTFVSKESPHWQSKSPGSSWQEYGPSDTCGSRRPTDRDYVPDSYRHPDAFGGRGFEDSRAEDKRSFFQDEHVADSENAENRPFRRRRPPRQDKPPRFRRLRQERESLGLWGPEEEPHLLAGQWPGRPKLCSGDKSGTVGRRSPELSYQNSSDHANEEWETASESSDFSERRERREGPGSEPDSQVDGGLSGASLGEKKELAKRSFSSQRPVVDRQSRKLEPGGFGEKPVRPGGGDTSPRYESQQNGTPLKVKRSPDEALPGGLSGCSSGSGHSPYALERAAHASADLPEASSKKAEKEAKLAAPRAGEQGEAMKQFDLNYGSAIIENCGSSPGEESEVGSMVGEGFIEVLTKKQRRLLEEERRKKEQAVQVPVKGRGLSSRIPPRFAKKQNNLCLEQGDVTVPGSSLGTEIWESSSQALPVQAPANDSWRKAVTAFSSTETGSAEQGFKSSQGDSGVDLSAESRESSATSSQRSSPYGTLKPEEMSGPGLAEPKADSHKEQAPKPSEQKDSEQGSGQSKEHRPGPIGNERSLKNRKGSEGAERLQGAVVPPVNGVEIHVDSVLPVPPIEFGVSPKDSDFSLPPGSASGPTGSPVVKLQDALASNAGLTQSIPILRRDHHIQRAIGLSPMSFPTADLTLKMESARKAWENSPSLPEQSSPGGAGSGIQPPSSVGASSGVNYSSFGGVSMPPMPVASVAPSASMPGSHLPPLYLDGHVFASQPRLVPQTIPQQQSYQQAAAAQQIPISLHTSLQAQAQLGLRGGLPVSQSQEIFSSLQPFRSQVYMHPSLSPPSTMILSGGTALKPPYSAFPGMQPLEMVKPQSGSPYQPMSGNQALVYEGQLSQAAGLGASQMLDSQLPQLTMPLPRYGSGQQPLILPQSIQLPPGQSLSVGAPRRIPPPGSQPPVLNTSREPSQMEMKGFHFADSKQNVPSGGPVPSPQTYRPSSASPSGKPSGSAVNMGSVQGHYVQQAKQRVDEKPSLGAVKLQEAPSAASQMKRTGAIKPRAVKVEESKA
UniProt Q5T2D3, whole entry: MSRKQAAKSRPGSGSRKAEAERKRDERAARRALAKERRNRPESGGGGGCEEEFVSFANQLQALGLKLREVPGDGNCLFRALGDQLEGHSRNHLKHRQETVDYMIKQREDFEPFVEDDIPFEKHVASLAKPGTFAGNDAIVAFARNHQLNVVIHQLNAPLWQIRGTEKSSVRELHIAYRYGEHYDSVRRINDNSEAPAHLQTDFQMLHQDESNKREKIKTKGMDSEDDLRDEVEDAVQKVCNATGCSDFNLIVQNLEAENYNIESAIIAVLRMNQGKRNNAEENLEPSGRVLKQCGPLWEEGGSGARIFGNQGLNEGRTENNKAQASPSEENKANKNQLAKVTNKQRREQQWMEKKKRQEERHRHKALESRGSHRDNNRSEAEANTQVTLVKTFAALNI
UniProt Q6JQN1: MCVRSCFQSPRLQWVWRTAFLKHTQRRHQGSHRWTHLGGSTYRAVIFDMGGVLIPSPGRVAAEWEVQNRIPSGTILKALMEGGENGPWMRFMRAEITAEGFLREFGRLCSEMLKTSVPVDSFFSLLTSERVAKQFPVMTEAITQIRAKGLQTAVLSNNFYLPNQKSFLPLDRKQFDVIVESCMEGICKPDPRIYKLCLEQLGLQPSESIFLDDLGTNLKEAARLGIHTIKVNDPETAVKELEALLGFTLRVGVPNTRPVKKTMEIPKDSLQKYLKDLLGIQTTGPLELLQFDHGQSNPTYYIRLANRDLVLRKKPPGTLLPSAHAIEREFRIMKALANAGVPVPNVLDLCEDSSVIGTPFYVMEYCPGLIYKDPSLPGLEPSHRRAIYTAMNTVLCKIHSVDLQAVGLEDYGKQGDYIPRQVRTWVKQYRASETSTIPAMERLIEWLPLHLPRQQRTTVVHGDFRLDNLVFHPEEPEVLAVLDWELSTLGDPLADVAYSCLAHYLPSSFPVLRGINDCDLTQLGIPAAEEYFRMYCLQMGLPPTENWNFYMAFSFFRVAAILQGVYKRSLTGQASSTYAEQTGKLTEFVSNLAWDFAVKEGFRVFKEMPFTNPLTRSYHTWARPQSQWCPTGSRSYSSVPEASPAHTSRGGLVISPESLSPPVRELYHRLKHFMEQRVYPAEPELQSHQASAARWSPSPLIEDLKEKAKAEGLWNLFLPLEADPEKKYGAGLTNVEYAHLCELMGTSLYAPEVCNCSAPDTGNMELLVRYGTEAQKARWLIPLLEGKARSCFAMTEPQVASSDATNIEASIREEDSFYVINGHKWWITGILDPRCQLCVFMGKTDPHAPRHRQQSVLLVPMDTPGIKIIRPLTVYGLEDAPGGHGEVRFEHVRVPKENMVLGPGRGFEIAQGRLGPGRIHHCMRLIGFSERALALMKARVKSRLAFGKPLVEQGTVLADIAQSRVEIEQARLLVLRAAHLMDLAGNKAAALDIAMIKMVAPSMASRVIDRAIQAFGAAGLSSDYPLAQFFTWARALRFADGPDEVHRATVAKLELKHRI

Target | NP40-soluble protein abundance (concentration: 1mM) | NP40-soluble protein abundance (concentration: 2mM) | NP40-soluble protein abundance (concentration: 4mM) | NP40-soluble protein abundance (concentration: 6mM) | NP40-soluble protein abundance (concentration: 8mM) | NP40-soluble protein abundance (concentration: 10mM)
Q5T3Q7 and related entries (UniProt Q9H583) | 1.08 ± 0.14 | 1.13 ± 0.11 | 1.24 ± 0.14 | 1.16 ± 0.11 | 1.3 ± 0.11 | 1.4 ± 0.1
UniProt Q5U5Q3 and related entries | 0.939 ± 0.019 | 0.977 ± 0.076 | 0.904 ± 0.066 | 0.954 ± 0.15 | 0.868 ± 0.12 | 0.978 ± 0.13
ALKBH2 (UniProt Q6NS38) | 1.04 ± 0.061 | 1.11 ± 0.075 | 1.09 ± 0.098 | 1.13 ± 0.12 | 1.12 ± 0.18 | 1.19 ± 0.13
UniProt Q5FWF5 | 1.14 ± 0.11 | 1.27 ± 0.23 | 1.27 ± 0.26 | 1.34 ± 0.32 | 1.35 ± 0.26 | 1.44 ± 0.36
UniProt Q5BJH7 and related entries | 0.98 ± 0.091 | 0.99 ± 0.09 | 0.946 ± 0.028 | 0.9432 ± 0.0024 | 0.945 ± 0.089 | 0.916 ± 0.013
RETSAT (UniProt Q6NUM9) | 0.943 ± 0.11 | 0.945 ± 0.1 | 0.953 ± 0.048 | 0.869 ± 0.14 | 0.964 ± 0.097 | 0.92 ± 0.098
Q5TBP9 and related entries (UniProt Q9BX40) | 1.05 ± 0.06 | 1.06 ± 0.059 | 1.07 ± 0.044 | 1.16 ± 0.056 | 1.15 ± 0.034 | 1.18 ± 0.028
AARS2 (UniProt Q5JTZ9) | 1.02 ± 0.046 | 1.03 ± 0.04 | 1.03 ± 0.051 | 0.981 ± 0.063 | 1.01 ± 0.049 | 1.02 ± 0.044
GKAP1 (UniProt Q5VSY0) | 1.07 ± 0.093 | 1.16 ± 0.17 | 1.16 ± 0.12 | 1.24 ± 0.12 | 1.31 ± 0.25 | 1.29 ± 0.16
UniProt Q5T0D9 and related entries | 1.09 ± 0.1 | 0.967 ± 0.092 | 1.06 ± 0.077 | 0.982 ± 0.2 | 1.05 ± 0.15 | 1.05 ± 0.018
UniProt Q6NUQ4 and related entries | 0.987 ± 0.033 | 1 ± 0.019 | 1.006 ± 0.0067 | 1.07 ± 0.018 | 1.04 ± 0.016 | 1.05 ± 0.025
Q5LJA5 and related entries (UniProt Q9Y5K5) | 0.971 ± 0.04 | 0.977 ± 0.033 | 0.976 ± 0.033 | 1 ± 0.043 | 0.948 ± 0.041 | 0.948 ± 0.029
UniProt Q6N069 | 1.09 ± 0.18 | 1.06 ± 0.1 | 1.09 ± 0.1 | 1.02 ± 0.15 | 1.12 ± 0.1 | 1.09 ± 0.075
PGM2L1 (UniProt Q6PCE3) | 0.965 ± 0.12 | 0.987 ± 0.093 | 0.946 ± 0.062 | 0.894 ± 0.13 | 0.953 ± 0.055 | 0.975 ± 0.046
UniProt Q5VW36 and related entries | 0.872 ± 0.051 | 0.883 ± 0.063 | 0.924 ± 0.0074 | 0.9248 ± 0.0075 | 1 ± 0.039 | 0.956 ± 0.076
DNAL1 (UniProt Q4LDG9) | 0.989 ± 0.064 | 0.958 ± 0.016 | 1.015 ± 0.01 | 1.05 ± 0.1 | 0.939 ± 0.059 | 0.819 ± 0.15
UniProt Q5GLZ8 and related entries | 1.03 ± 0.054 | 1.04 ± 0.064 | 1.06 ± 0.12 | 0.976 ± 0.056 | 1.05 ± 0.06 | 1.04 ± 0.045
CPTP (UniProt Q5TA50) | 0.962 ± 0.07 | 0.984 ± 0.075 | 0.981 ± 0.04 | 0.913 ± 0.088 | 0.9748 ± 0.0052 | 0.9193 ± 0.0056
NADSYN1 (UniProt Q6IA69) | 0.996 ± 0.13 | 1.02 ± 0.028 | 1.07 ± 0.019 | 0.959 ± 0.035 | 0.991 ± 0.071 | 0.955 ± 0.018
CWF19L1 (UniProt Q69YN2) | 0.968 ± 0.044 | 0.965 ± 0.016 | 0.973 ± 0.024 | 0.945 ± 0.07 | 0.953 ± 0.027 | 0.9744 ± 0.0095
C9orf64 (UniProt Q5T6V5) | 0.914 ± 0.05 | 0.96 ± 0.051 | 0.983 ± 0.075 | 0.927 ± 0.11 | 1.01 ± 0.054 | 1.01 ± 0.067
REEP3 (UniProt Q6NUK4) | 1.1 ± 0.067 | 1.14 ± 0.08 | 1.12 ± 0.051 | 1.11 ± 0.018 | 1.11 ± 0.058 | 1.15 ± 0.018
UniProt Q4VC05 and related entries | 0.888 ± 0.15 | 0.878 ± 0.12 | 0.791 ± 0.029 | 0.93 ± 0.15 | 0.787 ± 0.038 | 0.827 ± 0.13
UniProt Q53EL6 and related entries | 1.34 ± 0.13 | 1.41 ± 0.13 | 1.52 ± 0.19 | 1.66 ± 0.2 | 1.55 ± 0.14 | 1.55 ± 0.18
EDC4 (UniProt Q6P2E9) | 1.01 ± 0.026 | 1.012 ± 0.0057 | 1.001 ± 0.0078 | 1 ± 0.026 | 0.993 ± 0.022 | 1.02 ± 0.015
UniProt Q5TEU4 and related entries | 1.041 ± 0.0052 | 1.06 ± 0.028 | 1.019 ± 0.0085 | 0.982 ± 0.034 | 0.999 ± 0.034 | 1.022 ± 0.0042
UniProt Q5VVQ6 and related entries | 1.03 ± 0.074 | 0.999 ± 0.053 | 1.01 ± 0.073 | 1.02 ± 0.12 | 1.02 ± 0.097 | 1 ± 0.062

Reformatted: entries from further up.

| Target | NP40-soluble protein abundance (concentration: 1mM) | NP40-soluble protein abundance (concentration: 2mM) | NP40-soluble protein abundance (concentration: 4mM) | NP40-soluble protein abundance (concentration: 6mM) | NP40-soluble protein abundance (concentration: 8mM) | NP40-soluble protein abundance (concentration: 10mM) |
| --- | --- | --- | --- | --- | --- | --- |
| Q5T3Q7 and related entries (UniProt Q9H583) | 1.08 ± 0.14 | 1.13 ± 0.11 | 1.24 ± 0.14 | 1.16 ± 0.11 | 1.3 ± 0.11 | 1.4 ± 0.1 |
| UniProt Q5U5Q3 and related entries | 0.939 ± 0.019 | 0.977 ± 0.076 | 0.904 ± 0.066 | 0.954 ± 0.15 | 0.868 ± 0.12 | 0.978 ± 0.13 |
| UniProt Q5FWF5 | 1.14 ± 0.11 | 1.27 ± 0.23 | 1.27 ± 0.26 | 1.34 ± 0.32 | 1.35 ± 0.26 | 1.44 ± 0.36 |
| UniProt Q5BJH7 and related entries | 0.98 ± 0.091 | 0.99 ± 0.09 | 0.946 ± 0.028 | 0.9432 ± 0.0024 | 0.945 ± 0.089 | 0.916 ± 0.013 |
| Q5TBP9 and related entries (UniProt Q9BX40) | 1.05 ± 0.06 | 1.06 ± 0.059 | 1.07 ± 0.044 | 1.16 ± 0.056 | 1.15 ± 0.034 | 1.18 ± 0.028 |
| Q5LJA5 and related entries (UniProt Q9Y5K5) | 0.971 ± 0.04 | 0.977 ± 0.033 | 0.976 ± 0.033 | 1 ± 0.043 | 0.948 ± 0.041 | 0.948 ± 0.029 |
| UniProt Q6N069 | 1.09 ± 0.18 | 1.06 ± 0.1 | 1.09 ± 0.1 | 1.02 ± 0.15 | 1.12 ± 0.1 | 1.09 ± 0.075 |
| UniProt Q5VW36 and related entries | 0.872 ± 0.051 | 0.883 ± 0.063 | 0.924 ± 0.0074 | 0.9248 ± 0.0075 | 1 ± 0.039 | 0.956 ± 0.076 |
| DNAL1 (UniProt Q4LDG9) | 0.989 ± 0.064 | 0.958 ± 0.016 | 1.015 ± 0.01 | 1.05 ± 0.1 | 0.939 ± 0.059 | 0.819 ± 0.15 |
| UniProt Q5GLZ8 and related entries | 1.03 ± 0.054 | 1.04 ± 0.064 | 1.06 ± 0.12 | 0.976 ± 0.056 | 1.05 ± 0.06 | 1.04 ± 0.045 |
| REEP3 (UniProt Q6NUK4) | 1.1 ± 0.067 | 1.14 ± 0.08 | 1.12 ± 0.051 | 1.11 ± 0.018 | 1.11 ± 0.058 | 1.15 ± 0.018 |
| UniProt Q53EL6 and related entries | 1.34 ± 0.13 | 1.41 ± 0.13 | 1.52 ± 0.19 | 1.66 ± 0.2 | 1.55 ± 0.14 | 1.55 ± 0.18 |
| EDC4 (UniProt Q6P2E9) | 1.01 ± 0.026 | 1.012 ± 0.0057 | 1.001 ± 0.0078 | 1 ± 0.026 | 0.993 ± 0.022 | 1.02 ± 0.015 |

Continuation:

Target | NP40-soluble protein abundance (concentration: 1mM) | NP40-soluble protein abundance (concentration: 2mM) | NP40-soluble protein abundance (concentration: 4mM) | NP40-soluble protein abundance (concentration: 6mM) | NP40-soluble protein abundance (concentration: 8mM) | NP40-soluble protein abundance (concentration: 10mM)
CCDC58 (UniProt Q4VC31) | 0.936 ± 0.093 | 0.938 ± 0.05 | 0.936 ± 0.061 | 0.982 ± 0.057 | 0.904 ± 0.013 | 0.858 ± 0.067
UniProt Q6MZP7 and related entries | 1.04 ± 0.061 | 1.02 ± 0.058 | 1.03 ± 0.07 | 1.08 ± 0.089 | 1.05 ± 0.086 | 1.09 ± 0.045
UniProt Q5XUX1 and related entries | 1.03 ± 0.11 | 1.1 ± 0.08 | 1.06 ± 0.037 | 0.937 ± 0.076 | 1.03 ± 0.032 | 1 ± 0.018
FAM91A1 (UniProt Q658Y4) | 1.04 ± 0.066 | 1.03 ± 0.027 | 1.072 ± 0.0036 | 1.045 ± 0.0063 | 1.13 ± 0.024 | 1.11 ± 0.032
UniProt Q5T011 and related entries | 0.976 ± 0.053 | 0.986 ± 0.17 | 0.843 ± 0.038 | 1.05 ± 0.13 | 1.01 ± 0.19 | 1.06 ± 0.066
CRTC2 (UniProt Q53ET0) | 1.04 ± 0.043 | 1.03 ± 0.071 | 1.02 ± 0.029 | 1.02 ± 0.036 | 0.971 ± 0.063 | 0.976 ± 0.032
UniProt Q5TKA1 and related entries | 1 ± 0.033 | 1.04 ± 0.051 | 1.03 ± 0.051 | 1.07 ± 0.057 | 1.06 ± 0.039 | 1.09 ± 0.039
UniProt Q5JSP0 and related entries | 0.986 ± 0.043 | 0.973 ± 0.018 | 0.973 ± 0.017 | 0.976 ± 0.012 | 0.953 ± 0.014 | 0.949 ± 0.01
UniProt Q5T8I3 and related entries | 1.03 ± 0.063 | 1.07 ± 0.042 | 1.16 ± 0.14 | 1.09 ± 0.11 | 1.04 ± 0.047 | 1.06 ± 0.049
UniProt Q6P9B6 | 0.952 ± 0.025 | 0.958 ± 0.13 | 0.962 ± 0.14 | 0.969 ± 0.1 | 0.958 ± 0.078 | 0.969 ± 0.066
SMYD5 (UniProt Q6GMV2) | 0.983 ± 0.098 | 0.962 ± 0.063 | 0.948 ± 0.015 | 0.883 ± 0.11 | 0.926 ± 0.03 | 0.963 ± 0.024
UniProt Q58EX7 and related entries | 1.08 ± 0.022 | 1.03 ± 0.013 | 1.13 ± 0.12 | 0.989 ± 0.099 | 1.11 ± 0.1 | 1.02 ± 0.093
ZNF318 (UniProt Q5VUA4) | 1.07 ± 0.087 | 1.03 ± 0.12 | 1.07 ± 0.1 | 1.1 ± 0.18 | 1.09 ± 0.16 | 1.11 ± 0.13
UniProt Q6PCB8 and related entries | 0.937 ± 0.058 | 0.91 ± 0.036 | 0.943 ± 0.046 | 0.945 ± 0.044 | 0.9504 ± 0.0084 | 0.897 ± 0.073
CDCA8 (UniProt Q53HL2) | 1.07 ± 0.093 | 1.04 ± 0.13 | 1.16 ± 0.18 | 1.13 ± 0.29 | 1.17 ± 0.28 | 1.29 ± 0.33
UniProt Q5JSZ5 | 1.02 ± 0.094 | 1.03 ± 0.048 | 1.15 ± 0.093 | 1.27 ± 0.12 | 1.31 ± 0.074 | 1.51 ± 0.1
SNX30 (UniProt Q5VWJ9) | 0.947 ± 0.031 | 0.9748 ± 0.0026 | 1 ± 0.03 | 0.944 ± 0.024 | 1.01 ± 0.059 | 0.99 ± 0.021
OGFOD2 (UniProt Q6N063) | 1.04 ± 0.048 | 0.97 ± 0.12 | 0.985 ± 0.045 | 0.97 ± 0.12 | 0.981 ± 0.14 | 0.949 ± 0.074
UniProt Q504Q3 and related entries | 1.04 ± 0.11 | 1.05 ± 0.072 | 1.07 ± 0.039 | 0.979 ± 0.08 | 1.09 ± 0.011 | 1.08 ± 0.05
GLT8D1 (UniProt Q68CQ7) | 0.948 ± 0.012 | 0.987 ± 0.033 | 0.967 ± 0.042 | 0.966 ± 0.079 | 0.92 ± 0.029 | 0.973 ± 0.034
RSBN1L (UniProt Q6PCB5) | 1.29 ± 0.022 | 1.36 ± 0.022 | 1.4 ± 0.025 | 1.45 ± 0.075 | 1.46 ± 0.075 | 1.5 ± 0.12
UniProt Q69YH5 and related entries | 0.956 ± 0.054 | 0.96 ± 0.03 | 0.984 ± 0.032 | 0.958 ± 0.037 | 0.9408 ± 0.0053 | 0.959 ± 0.041
OCIAD2 (UniProt Q56VL3) | 0.914 ± 0.054 | 0.9391 ± 0.0027 | 0.938 ± 0.03 | 0.872 ± 0.086 | 0.91 ± 0.041 | 0.894 ± 0.063
UniProt Q5T2D3 | 1.38 ± 0.15 | 1.35 ± 0.24 | 1.56 ± 0.24 | 1.5 ± 0.22 | 1.49 ± 0.33 | 1.59 ± 0.056
UniProt Q6JQN1 and related entries | 0.979 ± 0.034 | 0.93 ± 0.099 | 0.977 ± 0.078 | 0.918 ± 0.047 | 0.947 ± 0.061 | 0.975 ± 0.056
UniProt Q5T2E6 and related entries | 1.04 ± 0.11 | 1.04 ± 0.1 | 1.02 ± 0.083 | 0.969 ± 0.13 | 0.99 ± 0.072 | 0.956 ± 0.048

Source: the supplement of paper PMC6411743
